# Cell number after 72 h of treatment

Source: doi:10.1371/journal.pone.0140310, primary screening data, rounded.

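Human melanoma cells were exposed to a pair of drugs for 72 h in 1,536-well plates and read by automated microscopy after fixing and staining. Each value is the count of nuclei relative to DMSO-treated wells, in %, so that 100 equals the control. Concentrations were fixed for each drug; these are the lower of two levels, a fifth of the higher. No replicate spread is given; individual values may be noisy.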
This is part of the screen, not chosen by result.

Compounds and concentrations:
YM155 (0.0004 µM): COCC[n+]1c2c(n(Cc3cnccn3)c1C)C(=O)c1ccccc1C2=O
selumetinib (0.015 µM): Cn1cnc2c(F)c(Nc3ccc(Br)cc3Cl)c(C(=O)NOCCO)cc21
GW441756 (0.4 µM): Cn1cc(/C=C2\C(=O)Nc3cccnc32)c2ccccc21
dasatinib (0.004 µM): Cc1nc(Nc2ncc(C(=O)Nc3c(C)cccc3Cl)s2)cc(N2CCN(CCO)CC2)n1
TCS401 (1.67 µM): O=C(O)C(=O)Nc1sc2c(c1C(=O)O)CCNC2
T0901317 (1.4 µM): O=S(=O)(c1ccccc1)N(CC(F)(F)F)c1ccc(C(O)(C(F)(F)F)C(F)(F)F)cc1
CHIR-265 (0.08 µM): Cn1c(Nc2ccc(C(F)(F)F)cc2)nc2cc(Oc3ccnc(-c4ncc(C(F)(F)F)[nH]4)c3)ccc21
FH535 (1 µM): Cc1cc([N+](=O)[O-])ccc1NS(=O)(=O)c1cc(Cl)ccc1Cl
NVP-TAE684 (0.08 µM): COc1cc(N2CCC(N3CCN(C)CC3)CC2)ccc1Nc1ncc(Cl)c(Nc2ccccc2S(=O)(=O)C(C)C)n1
stibogluconate (2 µM): O=C(O)[C@@H]1[O][Sb](=[O])([O][Sb]2(=[O])[O][C@H]([C@H](O)CO)[C@H](O)[C@H](C(=O)O)[O]2)[O][C@H]([C@H](O)CO)[C@@H]1O (stereo partly drawn)
vorinostat (0.08 µM): O=C(CCCCCCC(=O)Nc1ccccc1)NO
GSK0660 (1 µM): COC(=O)c1sccc1S(=O)(=O)Nc1ccc(Nc2ccccc2)cc1OC
GW9662 (2 µM): O=C(Nc1ccccc1)c1cc([N+](=O)[O-])ccc1Cl
U73122 (0.4 µM): COc1ccc2c(c1)CCC1C2CCC2(C)C(NCCCCCCN3C(=O)C=CC3=O)CCC12 (stereo not drawn)
lenalidomide (1 µM): Nc1cccc2c1CN(C1CCC(=O)NC1=O)C2=O (stereo not drawn)
FK866 (0.01 µM): O=C(/C=C/c1cccnc1)NCCCCC1CCN(C(=O)c2ccccc2)CC1

{"combination": "FH535 and dasatinib", "COLO 792": 64.9, "MEL-HO": 106, "IST-MEL1": 69.4, "COLO 829": 65.4, "IPC-298": 86.9}
{"combination": "FK866 and selumetinib", "COLO 792": 52.7, "MEL-HO": 42.6, "IST-MEL1": 64.4, "COLO 829": 80.2, "IPC-298": 45.8}
{"combination": "lenalidomide and T0901317", "COLO 792": 101, "MEL-HO": 98.7, "IST-MEL1": 98.0, "COLO 829": 83.9, "IPC-298": 88.2}
{"combination": "FK866 and lenalidomide", "COLO 792": 48.9, "MEL-HO": 46.3, "IST-MEL1": 68.4, "COLO 829": 78.4, "IPC-298": 43.4}
{"combination": "CHIR-265 and GW441756", "COLO 792": 46.7, "MEL-HO": 77.7, "IST-MEL1": 95.2, "COLO 829": 79.0, "IPC-298": 69.7}
{"combination": "NVP-TAE684 and vorinostat", "COLO 792": 102, "MEL-HO": 97.6, "IST-MEL1": 98.9, "COLO 829": 117, "IPC-298": 99.1}
{"combination": "YM155 and U73122", "COLO 792": 101, "MEL-HO": 96.1, "IST-MEL1": 98.7, "COLO 829": 110, "IPC-298": 106}
{"combination": "dasatinib and GSK0660", "COLO 792": 63.1, "MEL-HO": 84.8, "IST-MEL1": 89.5, "COLO 829": 72.4, "IPC-298": 102}
{"combination": "selumetinib and U73122", "COLO 792": 83.5, "MEL-HO": 98.5, "IST-MEL1": 99.7, "COLO 829": 127, "IPC-298": 67.4}
{"combination": "dasatinib and T0901317", "COLO 792": 73.7, "MEL-HO": 79.1, "IST-MEL1": 86.8, "COLO 829": 61.6, "IPC-298": 94.3}
{"combination": "lenalidomide and NVP-TAE684", "COLO 792": 96.7, "MEL-HO": 87.1, "IST-MEL1": 106, "COLO 829": 108, "IPC-298": 107}
{"combination": "selumetinib and GSK0660", "COLO 792": 84.7, "MEL-HO": 83.0, "IST-MEL1": 98.7, "COLO 829": 137, "IPC-298": 70.4}
{"combination": "TCS401 and lenalidomide", "COLO 792": 109, "MEL-HO": 108, "IST-MEL1": 98.3, "COLO 829": 99.8, "IPC-298": 103}
{"combination": "dasatinib and stibogluconate", "COLO 792": 61.7, "MEL-HO": 91.7, "IST-MEL1": 88.7, "COLO 829": 86.2, "IPC-298": 96.4}
{"combination": "GW441756 and selumetinib", "COLO 792": 98.0, "MEL-HO": 92.8, "IST-MEL1": 91.9, "COLO 829": 125, "IPC-298": 76.4}
{"combination": "YM155 and GSK0660", "COLO 792": 94.6, "MEL-HO": 83.6, "IST-MEL1": 74.0, "COLO 829": 86.3, "IPC-298": 87.0}
{"combination": "selumetinib and TCS401", "COLO 792": 92.2, "MEL-HO": 85.6, "IST-MEL1": 95.6, "COLO 829": 103, "IPC-298": 68.2}
{"combination": "vorinostat and GSK0660", "COLO 792": 91.8, "MEL-HO": 85.1, "IST-MEL1": 97.7, "COLO 829": 83.0, "IPC-298": 96.9}
{"combination": "NVP-TAE684 and YM155", "COLO 792": 88.6, "MEL-HO": 83.2, "IST-MEL1": 79.7, "COLO 829": 107, "IPC-298": 87.7}
{"combination": "GW9662 and lenalidomide", "COLO 792": 91.0, "MEL-HO": 81.6, "IST-MEL1": 99.0, "COLO 829": 94.2, "IPC-298": 111}
{"combination": "YM155 and GW9662", "COLO 792": 109, "MEL-HO": 91.2, "IST-MEL1": 85.0, "COLO 829": 96.4, "IPC-298": 99.0}
{"combination": "CHIR-265 and GW9662", "COLO 792": 53.5, "MEL-HO": 97.8, "IST-MEL1": 101, "COLO 829": 84.2, "IPC-298": 66.7}
{"combination": "GW441756 and lenalidomide", "COLO 792": 104, "MEL-HO": 101, "IST-MEL1": 95.3, "COLO 829": 93.9, "IPC-298": 105}
{"combination": "FK866 and CHIR-265", "COLO 792": 38.5, "MEL-HO": 40.2, "IST-MEL1": 66.7, "COLO 829": 66.3, "IPC-298": 47.8}
{"combination": "U73122 and vorinostat", "COLO 792": 91.5, "MEL-HO": 99.9, "IST-MEL1": 95.8, "COLO 829": 103, "IPC-298": 101}
{"combination": "FK866 and FH535", "COLO 792": 46.3, "MEL-HO": 61.8, "IST-MEL1": 68.9, "COLO 829": 85.3, "IPC-298": 39.0}
{"combination": "T0901317 and vorinostat", "COLO 792": 94.5, "MEL-HO": 111, "IST-MEL1": 102, "COLO 829": 103, "IPC-298": 93.3}
{"combination": "GW441756 and YM155", "COLO 792": 89.8, "MEL-HO": 102, "IST-MEL1": 86.8, "COLO 829": 78.1, "IPC-298": 92.4}
{"combination": "U73122 and CHIR-265", "COLO 792": 49.1, "MEL-HO": 72.4, "IST-MEL1": 85.6, "COLO 829": 77.6, "IPC-298": 56.6}
{"combination": "stibogluconate and FK866", "COLO 792": 48.9, "MEL-HO": 43.6, "IST-MEL1": 71.3, "COLO 829": 80.3, "IPC-298": 39.1}
{"combination": "YM155 and FH535", "COLO 792": 96.5, "MEL-HO": 78.4, "IST-MEL1": 82.2, "COLO 829": 94.2, "IPC-298": 83.0}

Some entries from above, unchanged:

* FH535 and dasatinib | COLO 792: 64.9; MEL-HO: 106; IST-MEL1: 69.4; COLO 829: 65.4; IPC-298: 86.9
* T0901317 and vorinostat | COLO 792: 94.5; MEL-HO: 111; IST-MEL1: 102; COLO 829: 103; IPC-298: 93.3
* GW9662 and lenalidomide | COLO 792: 91.0; MEL-HO: 81.6; IST-MEL1: 99.0; COLO 829: 94.2; IPC-298: 111